The experiment has as its target T1, MBP-tagged Hs NOT4 (full length, bacterially expressed) (human) (UniProt O95628).
T1 sequence: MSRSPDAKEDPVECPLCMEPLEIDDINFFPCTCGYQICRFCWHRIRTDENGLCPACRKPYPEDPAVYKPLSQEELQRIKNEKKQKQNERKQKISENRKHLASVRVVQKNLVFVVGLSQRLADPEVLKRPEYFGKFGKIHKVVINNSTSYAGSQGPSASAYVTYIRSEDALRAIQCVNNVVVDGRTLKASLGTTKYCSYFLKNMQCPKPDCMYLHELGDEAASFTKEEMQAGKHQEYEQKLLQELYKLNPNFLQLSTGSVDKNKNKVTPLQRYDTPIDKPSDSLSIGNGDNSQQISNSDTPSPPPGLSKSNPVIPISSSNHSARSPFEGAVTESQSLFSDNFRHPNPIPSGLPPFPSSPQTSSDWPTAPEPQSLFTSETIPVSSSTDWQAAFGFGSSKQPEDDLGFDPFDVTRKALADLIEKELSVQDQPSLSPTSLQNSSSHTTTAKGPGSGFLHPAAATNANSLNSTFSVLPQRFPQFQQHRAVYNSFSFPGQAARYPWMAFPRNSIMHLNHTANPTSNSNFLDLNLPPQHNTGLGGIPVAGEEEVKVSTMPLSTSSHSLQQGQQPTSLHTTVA
In words: pull-down; MBP pull-down: MBP-tagged Hs NOT4 or fragments (isolated on Ni-NTA) immobilised on amylose resin, excess of purified CCR4–NOT proteins, 1 h, 50 mM Na/HEPES pH 7.5, 300 mM NaCl, 2 mM β-mercaptoethanol; maltose elution, SDS-PAGE, Coomassie; both purified.

Results are given in words; binding and its absence hold for the method and conditions named. Binding calls can cover weak binding; strength is not graded here. Tags and fused reporters may be left off the sequences shown.

Consider NOT2–NOT3 heterodimer (human) (complex), for which the binding result was “binds weakly”.
